Experimental data as given in publication PMC3046128, “Systematic Two-Hybrid and Comparative Proteomic Analyses Reveal Novel Yeast Pre-mRNA Splicing Factors Connected to Prp19” (PLoS ONE, 2011).
Results are given in words; binding and its absence hold for the method and conditions named. For some of these results: In cells and extracts the contact can be indirect. Some entries that bind do so weakly or less than the wild type. Where a sequence is shown, tags or fusion partners need not be part of it.

T1: S. cerevisiae Prp19 amino acids 146–503 fused to the Gal4 DNA-binding domain (S. cerevisiae) (UniProt P32523)
T1 sequence: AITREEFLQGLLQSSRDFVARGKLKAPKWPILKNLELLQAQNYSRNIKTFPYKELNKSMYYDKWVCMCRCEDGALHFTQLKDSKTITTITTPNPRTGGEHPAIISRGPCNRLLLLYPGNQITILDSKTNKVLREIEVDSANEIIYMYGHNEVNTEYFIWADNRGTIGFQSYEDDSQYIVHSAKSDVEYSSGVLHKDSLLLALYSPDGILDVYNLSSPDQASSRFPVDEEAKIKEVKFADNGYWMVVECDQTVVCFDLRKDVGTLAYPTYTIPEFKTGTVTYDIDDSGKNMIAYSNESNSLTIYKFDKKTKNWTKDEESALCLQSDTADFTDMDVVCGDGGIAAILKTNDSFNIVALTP

T2: His6-ScPrp19(144–503) (S. cerevisiae, UniProt P32523 144-503)
T2 construct: Prp19, S. cerevisiae, amino acids 144–503; also called His6-Prp19(144–503); ScPrp19 WD40 domain; source: E. coli BL21 (pET15b), purified (Ni-NTA agarose)
T2 sequence (looked up): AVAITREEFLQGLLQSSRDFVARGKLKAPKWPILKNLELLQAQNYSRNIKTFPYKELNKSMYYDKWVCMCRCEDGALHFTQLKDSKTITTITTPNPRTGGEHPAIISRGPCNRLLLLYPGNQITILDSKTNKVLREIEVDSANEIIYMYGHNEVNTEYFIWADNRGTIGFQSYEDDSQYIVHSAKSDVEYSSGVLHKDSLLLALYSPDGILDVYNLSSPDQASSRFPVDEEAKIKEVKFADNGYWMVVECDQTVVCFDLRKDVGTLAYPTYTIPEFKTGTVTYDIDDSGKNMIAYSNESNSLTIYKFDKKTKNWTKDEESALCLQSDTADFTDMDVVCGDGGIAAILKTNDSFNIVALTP

B1: S. cerevisiae Mih1 ORF fused to the Gal4 activation domain (protein, UniProt P23748 1-554)
chain: MNNIFHGTEDECANEDVLSFQKISLKSPFGKKKNIFRNVQTFFKSKSKHSNVDDDLINKENLAFDKSPLLTNHRSKEIDGPSPNIKQLGHRDELDENENENDDIVLSMHFASQTLQSPTRNSSRRSLTNNRDNDLLSRIKYPGSPQRSSSFSRSRSLSRKPSMNSSSNSSRRVQRQDGKIPRSSRKSSQKFSNITQNTLNFTSASSSPLAPNSVGVKCFESCLAKTQIPYYYDDRNSNDFFPRISPETLKNILQNNMCESFYNSCRIIDCRFEYEYTGGHIINSVNIHSRDELEYEFIHKVLHSDTSNNNTLPTLLIIHCEFSSHRGPSLASHLRNCDRIINQDHYPKLFYPDILILDGGYKAVFDNFPELCYPRQYVGMNSQENLLNCEQEMDKFRRESKRFATKNNSFRKLASPSNPNFFYRDSHQSSTTMASSALSFRFEPPPKLSLNHRRVSSGSSLNSSESTGDENFFPILSKSSMSSNSNLSTSHMLLMDGLDTPSYFSFEDERGNHQQVSGDEEQDGDFTFVGSDREDLPRPARRSLFPSLETEDKK
B2: S. cerevisiae Cwc2 ORF fused to the Gal4 activation domain (protein, UniProt Q12046 1-339)
chain: MTSWRDKSAKVQVKESELPSSIPAQTGLTFNIWYNKWSQGFAGNTRFVSPFALQPQLHSGKTRGDNDGQLFFCLFFAKGMCCLGPKCEYLHHIPDEEDIGKLALRTEVLDCFGREKFADYREDMGGIGSFRKKNKTLYVGGIDGALNSKHLKPAQIESRIRFVFSRLGDIDRIRYVESKNCGFVKFKYQANAEFAKEAMSNQTLLLPSDKEWDDRREGTGLLVKWANEDPDPAAQKRLQEELKLESLNMMVHLINNNTNSAGTEVNNKNNERLDRTFPEASVDNVKKRLLPLDNGMESDDFIEKLKKVKKNISRENISSKPSVGKLGGPLLDYLSSDED
B3: S. cerevisiae Prp17/Cdc40 ORF fused to the Gal4 activation domain (protein, UniProt P40968 1-455)
chain: MGLVDGYDTSSDSDLNFDEGKSVHEKKNGNLHEDTSYEPSSNNIHKRKSHFTKSELKRRRKTRKGDGPWGSWSSSDDETSQASETQKEDQDIFVHALAEDNLDSEQIEVEEVSHFYGKSEKDYQGRGYLYPPNDVDVDLREERISFRCYLPKKVIRNYPGHPEGTTALKFLPKTGHLILSGGNDHTIKIWDFYHDYECLRDFQGHNKPIKALRFTEDCQSFLSSSFDRSVKIWDTETGKVKTRLHLNSTPADVESRPTNPHEFIVGLSNSKILHYDDRVSENQGLVQTYDHHLSSILALKYFPDGSKFISSSEDKTVRIWENQINVPIKQISDTAQHSMPFLNVHPSQNYFCAQSMDNRIYSFSLKPKYKRHPKKIFKGHSSAGYGISLAFSGDGRYICSGDSKSRLFTWDWNTSRLLNNIKIPGNKPITQVDWHPQETSKVICSGAAGKIYVCD
B4: S. cerevisiae YOR314w ORF fused to the Gal4 activation domain (protein, UniProt Q12506 1-109)
chain: MTMIRFCGARQSAIISNASDAAAGTNKKRILNPLESLCLNDRIDEHRCKEVQLSSLRSLLYAMILNRTIGSETGVFSFLLFSFRYFGEERDLFYCFFSVFLLNITYLLD
B5: S. cerevisiae Uba3 ORF fused to the Gal4 activation domain (protein, UniProt Q99344 1-299)
chain: MDCKILVLGAGGLGCEILKNLTMLSFVKQVHIVDIDTIELTNLNRQFLFCDKDIGKPKAQVAAQYVNTRFPQLEVVAHVQDLTTLPPSFYKDFQFIISGLDAIEPRRFINETLVKLTLESNYEICIPFIDGGTEGLKGHVKTIIPGITACWECSIDTLPSQQDTVPMCTIANNPRCIEHVVEYVSTIQYPDLNIESTADMEFLLEKCCERAAQFSISTEKLSTSFILGIIKSIIPSVSTTNAMVAATCCTQMVKIYNDLIDLENGNNFTLINCSEGCFMYSFKFERLPDCTVCSNSNSN
B6: S. cerevisiae YPL257w ORF fused to the Gal4 activation domain (protein, UniProt Q08974 1-193)
chain: MTAHANERISDVSPSARGSSSESKYDKLCRVLFFIAITKSSFTPEHILYKHSIFTDKPILADIVTFMYAAFVSIGWFLIWGERAYRTQEMGQPPMYSNINYHLLSFKKRHPKKFTCALWLVFFLAYTVLTVLIWLVQLIFRKGNVFQMLLQLIILDIAIALVNVAIAFTFEIYLSQKAAIEIRDEGLNNLDTA
B7: S. cerevisiae Urn1 ORF fused to the Gal4 activation domain (protein, UniProt Q06525 1-465)
chain: MRGEWQEFKTPAGKKYYYNKNTKQSRWEKPNLKKGSNLESNAKESQTERKPTFSLELVNGWHLIIYNDGTKLYFNDDSKEFKNDISQEDDSRCRSLIESLDKEKLVLLIGVARGYTMREEDIDKILESCNEEIHLFKRNQDEVERKDEISEEAGDVKSPLQESHTGLVSGYGSSSGEEDEEEDEEEDEENEEQIVNQDISIIDDLNRIDTDDIDERNIFFELFDRYKLDKFSTWSLQSKKIENDPDFYKIRDDTVRESLFEEWCGERSGNATAEESDSEDNSEDDSEVLEPTKYHYLAQIVANAGTIAPDTIPQDIRKQQKALYKAYKIKEYIPSKRDQDKFVSQLLFYYKTFDLEQRKEIFCDCLRDHERDFTGAVESLRQDKELIDRWQTLLKAPADSSSIEDILLSIEHRCCVSPIVVTEPRYYVVGILEKTVVWVRWLAAEVGPSSRFTPVGAGNEPINPE
B8: S. cerevisiae Ufd4 ORF fused to the Gal4 activation domain (protein, UniProt P33202 1-1483)
chain: MSENNSHNLDEHESHSENSDYMMDTQVEDDYDEDGHVQGEYSYYPDEDEDEHMLSSVGSFEADDGEDDDNDYHHEDDSGLLYGYHRTQNGSDEDRNEEEDGLERSHDNNEFGSNPLHLPDILETFAQRLEQRRQTSEGLGQHPVGRTLPEILSMIGGRMERSAESSARNERISKLIENTGNASEDPYIAMESLKELSENILMMNQMVVDRIIPMETLIGNIAAILSDKILREELELQMQACRCMYNLFEVCPESISIAVDEHVIPILQGKLVEISYIDLAEQVLETVEYISRVHGRDILKTGQLSIYVQFFDFLTIHAQRKAIAIVSNACSSIRTDDFKTIVEVLPTLKPIFSNATDQPILTRLVNAMYGICGALHGVDKFETLFSLDLIERIVQLVSIQDTPLENKLKCLDILTVLAMSSDVLSRELREKTDIVDMATRSFQHYSKSPNAGLHETLIYVPNSLLISISRFIVVLFPPEDERILSADKYTGNSDRGVISNQEKFDSLVQCLIPILVEIYTNAADFDVRRYVLIALLRVVSCINNSTAKAINDQLIKLIGSILAQKETASNANGTYSSEAGTLLVGGLSLLDLICKKFSELFFPSIKREGIFDLVKDLSVDFNNIDLKEDGNENISLSDEEGDLHSSIEECDEGDEEYDYEFTDMEIPDSVKPKKISIHIFRTLSLAYIKNKGVNLVNRVLSQMNVEQEAITEELHQIEGVVSILENPSTPDKTEEDWKGIWSVLKKCIFHEDFDVSGFEFTSTGLASSITKRITSSTVSHFILAKSFLEVFEDCIDRFLEILQSALTRLENFSIVDCGLHDGGGVSSLAKEIKIKLVYDGDASKDNIGTDLSSTIVSVHCIASFTSLNEFLRHRMVRMRFLNSLIPNLTSSSTEADREEEENCLDHMRKKNFDFFYDNEKVDMESTVFGVIFNTFVRRNRDLKTLWDDTHTIKFCKSLEGNNRESEAAEEANEGKKLRDFYKKREFAQVDTGSSADILTLLDFLHSCGVKSDSFINSKLSAKLARQLDEPLVVASGALPDWSLFLTRRFPFLFPFDTRMLFLQCTSFGYGRLIQLWKNKSKGSKDLRNDEALQQLGRITRRKLRISRKTIFATGLKILSKYGSSPDVLEIEYQEEAGTGLGPTLEFYSVVSKYFARKSLNMWRCNSYSYRSEMDVDTTDDYITTLLFPEPLNPFSNNEKVIELFGYLGTFVARSLLDNRILDFRFSKVFFELLHRMSTPNVTTVPSDVETCLLMIELVDPLLAKSLKYIVANKDDNMTLESLSLTFTVPGNDDIELIPGGCNKSLNSSNVEEYIHGVIDQILGKGIEKQLKAFIEGFSKVFSYERMLILFPDELVDIFGRVEEDWSMATLYTNLNAEHGYTMDSSIIHDFISIISAFGKHERRLFLQFLTGSPKLPIGGFKSLNPKFTVVLKHAEDGLTADEYLPSVMTCANYLKLPKYTSKDIMRSRLCQAIEEGAGAFLLS
B9: Cwc2-GFP (S. cerevisiae) (protein, UniProt Q12046 1-339)
chain: MTSWRDKSAKVQVKESELPSSIPAQTGLTFNIWYNKWSQGFAGNTRFVSPFALQPQLHSGKTRGDNDGQLFFCLFFAKGMCCLGPKCEYLHHIPDEEDIGKLALRTEVLDCFGREKFADYREDMGGIGSFRKKNKTLYVGGIDGALNSKHLKPAQIESRIRFVFSRLGDIDRIRYVESKNCGFVKFKYQANAEFAKEAMSNQTLLLPSDKEWDDRREGTGLLVKWANEDPDPAAQKRLQEELKLESLNMMVHLINNNTNSAGTEVNNKNNERLDRTFPEASVDNVKKRLLPLDNGMESDDFIEKLKKVKKNISRENISSKPSVGKLGGPLLDYLSSDED
B10: Prp17-GFP (S. cerevisiae) (protein, UniProt P40968 1-455)
chain: MGLVDGYDTSSDSDLNFDEGKSVHEKKNGNLHEDTSYEPSSNNIHKRKSHFTKSELKRRRKTRKGDGPWGSWSSSDDETSQASETQKEDQDIFVHALAEDNLDSEQIEVEEVSHFYGKSEKDYQGRGYLYPPNDVDVDLREERISFRCYLPKKVIRNYPGHPEGTTALKFLPKTGHLILSGGNDHTIKIWDFYHDYECLRDFQGHNKPIKALRFTEDCQSFLSSSFDRSVKIWDTETGKVKTRLHLNSTPADVESRPTNPHEFIVGLSNSKILHYDDRVSENQGLVQTYDHHLSSILALKYFPDGSKFISSSEDKTVRIWENQINVPIKQISDTAQHSMPFLNVHPSQNYFCAQSMDNRIYSFSLKPKYKRHPKKIFKGHSSAGYGISLAFSGDGRYICSGDSKSRLFTWDWNTSRLLNNIKIPGNKPITQVDWHPQETSKVICSGAAGKIYVCD

target: T1, S. cerevisiae Prp19 amino acids 146–503 fused to the Gal4 DNA-binding domain (S. cerevisiae); experiment: two-hybrid; genome-wide screen in duplicate; bait ScPrp19(146–503) fused to the Gal4 DNA-binding domain against an array of ~6000 yeast strains each expressing a S. cerevisiae ORF fused to the Gal4 activation domain

binding, binds:
B1
B2
B3
B4
B5
B6
B7
B8

target: T2, His6-ScPrp19(144–503); experiment: pull-down; His6-Prp19(144–503) on Ni-NTA beads mixed 1 hr at 4°C with S. cerevisiae protein lysates expressing GFP-tagged proteins; washed with bead binding buffer with 5 mM imidazole; anti-GFP immunoblot; only the target purified

binding, binds:
B9
B10
